Source: PubChem BioAssay AID504834 (National Center for Advancing Translational Sciences (NCATS), 2011)
Several values for one entry are separate records, joined by “and”; a condition that tells them apart may be missing. Equal values may be shown once. In all, about 320,000 compounds went through this assay and about 22,000 (6.9%) were called active. This list was built around the results that the source calls inconclusive (neither active nor inactive); the mix of calls is not that of the screen. Calls follow the shape of the dose curve; as a rule, active = well fitted inhibition curve with a large enough effect; inconclusive = small, poorly fitted or top-dose-only effect, or another doubt; inactive = no such curve, though single readings can be large or run the other way. Potencies of inconclusive entries are doubtful fits and often do not repeat.

Assay: Primary qHTS for delayed death inhibitors of the malarial parasite plastid, 96 hour incubation
Details: P. falciparum luciferase reporter growth; series mostly up to 28.7 µM
Summary of the method: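 Readout is luminescence from an integrated firefly luciferase in P. falciparum. Red cells, 2% hematocrit and 0.05% parasitemia final, were cultured with compound through two parasite generations (96 hours) at 37 C, 5% CO2.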
Potency is read from the fitted curve at half-maximal effect.

SMILES	Potency
CC(=O)c1ccc(S(=O)(=O)N(C)CC(=O)N2CCCCCC2)cc1	inactive
CC(=O)c1ccc(NC(=O)c2cccc(NC(=O)c3ccccc3)c2)cc1	inconclusive: 18.5 µM [inhibitor, single point]
Cc1ccc(S(=O)(=O)c2nc(S(=O)(=O)CCO)sc2N2CCOCC2)cc1	inactive
Clc1cccc(CN2COc3c(cc(Cl)c4cccnc34)C2)c1	active: 0.329 µM
CSc1ccc(S(=O)(=O)N2CC(=O)Nc3ccccc32)cc1	inconclusive: 3.7 µM [inhibitor, single point]
CCOC(=O)Cn1c(S(=O)(=O)Cc2ccc(F)cc2)nc(-c2ccccc2)c1-c1ccccc1	active: 9.28 µM
C[C@@H]1CCC(=O)N(CC[C@H](Sc2ccccc2)c2ccccc2)CC1	inconclusive: 11.7 µM [inhibitor, partial curve, poor fit]
O=C1NN=C(c2ccccc2)CC1c1ccc(Cl)cc1Cl (stereo not drawn)	inconclusive: 0.0329 µM [inhibitor, full curve, poor fit]
COc1cccc(-c2nc(CS(=O)(=O)CC(=O)NCCCN3CCOCC3)c(C)o2)c1	inconclusive: 2.62 µM [inhibitor, full curve]
COCCN(C(=O)CCC(=O)Nc1ccccn1)C(C(=O)NC(C)C)c1ccc(C)cc1 (stereo not drawn)	inactive
O=C(NCCCN1CCOCC1)c1ccc2c(c1)N(Cc1c(F)cccc1Cl)C(=O)c1ccccc1S2	inconclusive: 1.65 µM [inhibitor, full curve]
CNC(=O)c1[nH]cnc1C(=O)N[C@@H](CCCCNC(=O)OC(C)(C)C)C(=O)OC(C)(C)C	inconclusive: 2.33 µM [inhibitor, single point]
CC(C)c1ccc2[nH]c(O)c(N=NC(=O)c3cccc(S(=O)(=O)N4CCCCC4)c3)c2c1	active: 9.28 µM
Cc1ccc(CN(Cc2ccccc2)C(=S)NCC(=O)N2CCC3(CC2)OCCO3)o1	inconclusive: 1.31 µM [inhibitor, full curve, poor fit]
Cc1cc(NC(=O)c2cc(-c3ccc(O)cc3)on2)no1	inactive
Cc1ccc(C)n1-c1ccc(N2CCOCC2)cc1	inconclusive: 10.4 µM [inhibitor, single point]
CCOc1ccc(Nc2nc3c(c(=O)[nH]2)CCCC3)cc1	inactive
COc1ccc(/C=C/c2nc(-c3ccccc3)cc(=O)[nH]2)cc1	inactive
CCOC(=O)N1CCN(S(=O)(=O)c2ccc([N+](=O)[O-])cc2)CC1	inconclusive: 4.65 µM [inhibitor, partial curve]
CCN(CC)S(=O)(=O)c1ccc(Nc2cc(C)nc3ncnn23)cc1	inconclusive: 7.38 µM [inhibitor, partial curve, poor fit]
CCCCNC(=S)N1CCn2cccc2C1c1ccc(F)cc1 (stereo not drawn)	inconclusive: 6.57 µM [inhibitor, partial curve, poor fit]
NC(=O)COC(=O)[C@H](Cc1ccccc1)NS(=O)(=O)c1ccc2c(c1)OCCO2	inactive
NC(=O)CN1C(=O)NC2(CCOc3ccccc32)C1=O (stereo not drawn)	inactive

SMILES	Potency
COc1ccc(/C=C/CN2CCC(CO)(Cc3ccccc3Cl)CC2)cc1	inconclusive: 11.7 µM [inhibitor, partial curve, poor fit]
CCCOc1ccc(N2C(=O)CC(NCc3ccc(S(N)(=O)=O)cc3)C2=O)cc1 (stereo not drawn)	inconclusive: 5.22 µM [inhibitor, partial curve, poor fit]
Cc1cc(C)c2nc(N(CCCN(C)C)C(=O)C3=COCCO3)sc2c1	inconclusive: 11.7 µM [inhibitor, single point]
O=C(CSc1nc2c(sc3ccccc32)c(=O)n1CCCN1CCCC1)NCc1ccco1	inconclusive: 13.1 µM [inhibitor, single point]
Cc1ccccc1NC(=O)N1c2ccccc2CC1C (stereo not drawn)	inactive
O=C1CC(SC(=Nc2ccccc2)Nc2ccccc2)C(=O)N1c1cccc(Cl)c1 (stereo not drawn)	inconclusive: 0.0586 µM [inhibitor, full curve, poor fit]
Cc1nn(Cc2ccc(Cl)cc2)c(C)c1NC(=O)/C=C/c1cnn(C)c1	inconclusive: 18.5 µM [inhibitor, single point]
O=C(CN1CCN(S(=O)(=O)c2ccc3ccccc3c2)CC1)N1CCc2ccccc2C1	inconclusive: 0.828 µM [inhibitor, full curve]
Cc1cc(Cl)cc(C)c1OCCCCCn1ccnc1	inactive
COc1ccc(N(C)S(=O)(=O)c2cccc(C(=O)NC3CCCC3)c2)cc1	inconclusive: 18.5 µM [inhibitor, single point]
Cn1cc(CNC(=O)Nc2ccc3c(c2)OCO3)cn1	inactive
COc1ccc(-c2cc(=O)n(CCC#N)[nH]2)cc1	active: 7.38 µM
O=c1cc(N2CCCCC2)c(-c2ccccc2)n[nH]1	inactive
Cc1cccc(OC(C)C(=O)Nc2ccc(N3CCCCC3)cc2)c1 (stereo not drawn)	inactive
Cc1ccc(N2C(=O)CS/C2=C(\C(Cl)=C(Cl)Cl)[N+](=O)[O-])cc1	inconclusive: 0.928 µM [inhibitor, full curve, poor fit]
COc1ccc(-c2nnc(CSc3nc4ccccc4c(=O)n3CC3CCCO3)o2)cc1OC (stereo not drawn)	inconclusive: 11.7 µM [inhibitor, single point]
CC(NS(=O)(=O)c1ccc(CCC(=O)NCc2cccnc2)cc1)c1ccccc1 (stereo not drawn)	inconclusive: 10.4 µM [inhibitor, single point]
O=C(Nc1cccc(-c2csc(Nc3ccc(Cl)cc3)n2)c1)c1cccc(C(F)(F)F)c1	inconclusive: 18.5 µM [inhibitor, single point]
CC1(C)CC(NC(=O)C23CCC(C)(/C(=N/O)C2)C3(C)C)CC(C)(C)N1 (stereo not drawn)	inconclusive: 18.5 µM [inhibitor, single point]
O=C(CCn1c(=S)[nH]c2cc3c(cc2c1=O)OCO3)NCc1cccc(Cl)c1	inconclusive: 10.4 µM [inhibitor, single point]
CC1=C(C(=O)Nc2cc(C(=O)N3CCC(C)CC3)ccc2C)SCCO1	inconclusive: 10.4 µM [inhibitor, single point]
CCOC(=O)/C(C#N)=C\C1=C(N2CCCC2)CC(C)(CC)OC1 (stereo not drawn)	inconclusive: 18.5 µM [inhibitor, single point]

Some of the entries above in a different format.
SMILES | Potency
O=C(CSc1nc2c(sc3ccccc32)c(=O)n1CCCN1CCCC1)NCc1ccco1 | inconclusive: 13.1 µM [inhibitor, single point]
Cc1ccccc1NC(=O)N1c2ccccc2CC1C (stereo not drawn) | inactive

More records

SMILES	Potency
CC(C(=O)OCC(=O)c1ccc(Br)cc1)N1C(=O)C2C3C=CC(C3)C2C1=O (stereo not drawn)	inactive
Cc1ccc(-c2ccc(CCC(=O)O)n2NC(=O)c2ccc([N+](=O)[O-])cc2)cc1	inactive
O=C(c1ccco1)N1CCN(c2ccc([N+](=O)[O-])cc2Cl)CC1	inconclusive: 9.28 µM [inhibitor, partial curve]
OCC#CCSc1nnc(-c2ccccc2Br)o1	inconclusive: 13.1 µM [inhibitor, partial curve, poor fit]
CN(C(=O)C1CCC(=O)N(Cc2ccccc2F)C1)C1CCOCC1 (stereo not drawn)	inconclusive: 18.5 µM [inhibitor, single point]
O=C(COc1ccc2c3c(c(=O)oc2c1)CCCC3)NCc1ccccn1	inconclusive: 18.5 µM [inhibitor, single point]
Cc1onc(-c2c(F)cccc2Cl)c1-c1nnc(-c2ccc(C(F)(F)F)cc2)o1	active: 8.28 µM
O=C(N/N=C\c1c(O)ccc2ccccc12)c1ccc(S(=O)(=O)N2CCCCC2)cc1	inactive
COc1ccc(C(C)=O)cc1COC(=O)CNC(=O)c1ccc(Cl)cc1	inactive
Cc1cnc(CN2CCCC(C(=O)c3ccc4c5c(cccc35)CC4)C2)[nH]1 (stereo not drawn)	inconclusive: 11.7 µM [inhibitor, single point]
CC(C)C(C)NC(=O)COC(=O)C1CCN(S(=O)(=O)c2ccc3c(c2)OCCO3)CC1 (stereo not drawn)	inactive
CC(C)NCC(O)c1ccc(O)c(O)c1 (stereo not drawn)	inconclusive: 4.26 µM [inhibitor, partial curve, poor fit] and inconclusive: 13.1 µM [inhibitor, single point]
COc1ccc(N2CCC(CNS(=O)(=O)c3cccc(C(F)(F)F)c3)C2)cc1 (stereo not drawn)	inconclusive: 18.5 µM [inhibitor, single point]
COc1ccc(-c2csc(N)n2)cc1F	inactive
CCNc1sc(S(C)(=O)=O)nc1S(=O)(=O)c1ccc(Cl)cc1	inconclusive: 14.7 µM [inhibitor, single point]
O=C(c1cc(-c2ccccc2)nn1-c1ccccc1)N1CCN(S(=O)(=O)c2cccc(F)c2)CC1	inconclusive: 4.15 µM [inhibitor, single point]
CC(C)n1ncc2c(C(=O)NCc3ccccc3CN(C)C)cc(C3CC3)nc21	inconclusive: 11.7 µM [inhibitor, single point]
Cc1[nH]c2ccccc2c1/C=C/c1nc2ccccc2c(=O)[nH]1	inconclusive: 2.94 µM [inhibitor, full curve, poor fit]
O=C1C2CCCCC2C(=O)N1c1ccc(NC2CCN(Cc3ccccc3)CC2)c([N+](=O)[O-])c1 (stereo not drawn)	inactive
Cc1ccc(S(=O)(=O)NCc2ccc(C(=O)NCCc3ccc(S(N)(=O)=O)cc3)cc2)cc1	inactive
COC(=O)[C@]1(CC(C)C)N[C@H](c2ccc(-c3ccc(F)cc3)cc2)[C@@H]2C(=O)N(C)C(=O)[C@@H]21	active: 6.57 µM
COc1ccc(-c2nnc(SCC(N)=O)n2N)cc1	inconclusive: 0.586 µM [inhibitor, full curve, poor fit]

Two of the compounds above, with bars between the fields.
SMILES | Potency
COc1ccc(/C=C/c2nc(-c3ccccc3)cc(=O)[nH]2)cc1 | inactive
CCOC(=O)N1CCN(S(=O)(=O)c2ccc([N+](=O)[O-])cc2)CC1 | inconclusive: 4.65 µM [inhibitor, partial curve]
